# In PubChem BioAssay AID662 (National Center for Advancing Translational Sciences (NCATS), 2007):
# The list shows a part of the results. These are further read-outs of the screen, such as a control signal, another cell line or another target. No call is given for them. Most of these compounds were active or inconclusive in the main read-out, so they are no random draw. Potencies come from curve fits of mixed quality, noted in brackets.
# Experiment: Cell signaling CRE-BLA (Fsk stim)
# Settings: CHO CRE-bla reporter (cAMP response element driving beta-lactamase), forskolin EC10, beta-lactamase ratio; measured here: 460 nm blue channel
# Summary of the method: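 Titrated compounds plus EC10 NKH 477 on CHO CRE-bla cells, 3 h, 37 °C. CCF4, 2 h RT. Ratio 460/530 nm → AC50.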
row,Structure (SMILES),AC50
1,Cc1nc(C)c(C(=O)NCc2ccccc2Cl)o1,"5.01 µM [falling, single point]"
2,CC1CCCN(Cc2nc3c(c(=O)n(C)c(=O)n3C)n2CC(=O)c2ccccc2)C1 (stereo not drawn),"12.6 µM [rising, single point]"
3,COc1cccc(C2CC(=O)Nc3cc4c(cc32)OCCO4)c1OC(C)C (stereo not drawn),"12.6 µM [rising, single point]"
4,CCCCC[C@H](O)C=C[C@H]1[C@H](O)CC(=O)[C@H]1CCCCCCC(=O)O,"0.02 µM [rising, full curve, poor fit]"
5,O=C(O)C1C2CCC(O2)C1C(=O)Nc1cccc(F)c1 (stereo not drawn),"10 µM [rising, partial curve]"
6,COC(=O)[C@H](CC(C)C)NC(=O)NC1CCCc2ccccc21 (stereo partly drawn),"10 µM [falling, partial curve]"
7,COc1cc(C2Nc3ccc4ncccc4c3C3=C2C(=O)CCC3)cc(OC)c1O (stereo not drawn),"20 µM [rising, single point]"
8,COc1ccc2c(=O)c(C(=O)NCCc3ccc(OC)c(OC)c3)c[nH]c2c1,"10 µM [rising, partial curve]"
9,Cc1nc2sc3c(c2c2nc(-c4ccco4)nn12)CC(C)(C)OC3,"10 µM [rising, partial curve]"
10,COCC(=O)Nc1cc(C)c2c(=O)oc3ccccc3c2n1,"10 µM [rising, partial curve]"
11,N#Cc1cccc(-c2cc(NCc3cccs3)ncn2)c1,"3.16 µM [rising, full curve]"
12,COc1cccc(-n2nnnc2SCC(=O)c2ccc(NC(C)=O)cc2)c1,"25.1 µM [falling, single point]"
13,CCc1c(C)nc2ncnn2c1NCCc1ccc(OC)c(OC)c1,"25.1 µM [rising, single point]"
14,O=C(On1c(-c2ccccc2)nc2ccccc2c1=O)c1ccco1,"10 µM [falling, single point]"
15,CC[C@@H](CS(=O)(=O)O)[N+](=O)[O-],"0.000794 µM [falling, full curve, poor fit]"
16,Cc1nnc(SCC(=O)NCc2ccco2)[nH]c1=O,"0.316 µM [falling, full curve]"
17,COc1cc2c(cc1OC)-c1cc(NC3CCCCCCC3)nc(=O)n1CC2,"0.631 µM [rising, full curve]"
18,Cc1nn(CCc2nc(-c3ccco3)cs2)c2[nH]c(=O)cc(C(F)(F)F)c12,"0.501 µM [rising, partial curve]"
19,N#CCCn1c(=O)c(CCc2ccccc2)nc2cnc(N3CCOCC3)nc21,"6.31 µM [rising, partial curve]"
20,COc1ccc(CNc2ncncc2-c2ccc(N(C)C)cc2)c(OC)c1,"10 µM [rising, partial curve]"
21,CCOC(=O)CN(C(=O)CSc1nnc2c(n1)[nH]c1ccccc12)c1ccccc1,"10 µM [rising, partial curve]"
22,O=c1c2ccccc2nc(SCc2cn3ccsc3n2)n1-c1ccccc1F,"1 µM [rising, partial curve]"

# In the list so far, these contain sulfur.
row,Structure (SMILES),AC50
9,Cc1nc2sc3c(c2c2nc(-c4ccco4)nn12)CC(C)(C)OC3,"10 µM [rising, partial curve]"
11,N#Cc1cccc(-c2cc(NCc3cccs3)ncn2)c1,"3.16 µM [rising, full curve]"
12,COc1cccc(-n2nnnc2SCC(=O)c2ccc(NC(C)=O)cc2)c1,"25.1 µM [falling, single point]"
15,CC[C@@H](CS(=O)(=O)O)[N+](=O)[O-],"0.000794 µM [falling, full curve, poor fit]"
16,Cc1nnc(SCC(=O)NCc2ccco2)[nH]c1=O,"0.316 µM [falling, full curve]"
18,Cc1nn(CCc2nc(-c3ccco3)cs2)c2[nH]c(=O)cc(C(F)(F)F)c12,"0.501 µM [rising, partial curve]"
21,CCOC(=O)CN(C(=O)CSc1nnc2c(n1)[nH]c1ccccc12)c1ccccc1,"10 µM [rising, partial curve]"
22,O=c1c2ccccc2nc(SCc2cn3ccsc3n2)n1-c1ccccc1F,"1 µM [rising, partial curve]"

# Next part.

row,Structure (SMILES),AC50
1,O=C(CSc1nnc2scc(-c3ccccc3)n12)Nc1ccc2c(c1)OCCO2,"0.631 µM [rising, full curve, poor fit]"
2,CNC(=O)c1ccc(-c2sc3nc(N4CCOCC4)c4c(c3c2N)CCCC4)o1,"3.16 µM [rising, partial curve]"
3,O=C(c1csnn1)N1CCC2(CC1)CN(c1ccccn1)C2,"25.1 µM [rising, single point]"
4,Fc1ccc(-c2noc(C3CCN(Cc4cccnc4)CC3)n2)cc1,"0.126 µM [falling, single point]"
5,Cc1c(Cl)cccc1NC(=O)CSc1nnc(CCNC(=O)OC(C)(C)C)o1,"3.98 µM [falling, full curve, poor fit]"
6,COc1ccc(-c2cc(C(F)F)n3ncc(C(=O)NCC4CCCO4)c3n2)cc1 (stereo not drawn),"5.01 µM [rising, partial curve]"
7,Cc1ccccc1S(=O)(=O)Cc1ccc(C(=O)N2CCN(c3cccc(C)c3C)CC2)o1,"12.6 µM [falling, single point]"
8,CCOC(=O)c1c(C)oc(NC(=O)COc2ccc(Cl)cc2C)c1C#N,"25.1 µM [rising, single point]"
9,COc1ccc(-c2cc(C(=O)N3CCN(C(c4ccccc4)c4ccccc4)CC3)no2)cc1,"25.1 µM [falling, single point]"
10,Cc1noc(C)c1CSc1nnc2scc(-c3ccc(Cl)cc3)n12,"10 µM [rising, partial curve]"
11,Cc1cc(C)c(S(=O)(=O)Nc2cccc3nsnc23)c(C)c1,"6.31 µM [rising, partial curve]"
12,COc1ccccc1CN1C(=O)[C@@H]2C(CC(N)=O)NC3(C(=O)Nc4c3ccc(Cl)c4C)[C@@H]2C1=O (stereo partly drawn),"5.01 µM [falling, partial curve]"
13,COc1ccc2cccc(N3CCN(CCNC(=O)c4ccc(F)cc4)CC3)c2c1,"25.1 µM [falling, partial curve, poor fit]"
14,O=C1CCCN1CCCNc1ccc(S(=O)(=O)N2CCCCC2)cn1,"0.0126 µM [falling, full curve, poor fit]"
15,O=C(Nc1nnc(CC(=O)N2CCOCC2)s1)C1COc2ccccc2O1 (stereo not drawn),"12.6 µM [falling, single point]"
16,Cc1nc(NCc2ccco2)c(C#N)c2c1COC(C)(C)C2,"0.251 µM [rising, partial curve, poor fit]"
17,C=CCSc1nnc(-c2ccccc2NC(C)=O)c(=O)[nH]1,"0.2 µM [falling, full curve]"
18,C=C(C)Cn1c(SCC)nc2ccccc2c1=O,"12.6 µM [rising, partial curve]"
19,Cc1cc(NC(=O)CN2CCCCCCC2)no1,"0.501 µM [falling, full curve]"
20,CCCCN(CC)CCNC(=O)c1cc2c(=O)n(C)c3ccccc3c2n1C,"10 µM [rising, partial curve]"
21,COC(=O)c1ccc(CSc2nc3c(cnn3-c3ccc(C)c(C)c3)c(=O)[nH]2)o1,"3.16 µM [rising, partial curve]"
